Values quoted from earlier work in patent US7541371B2, “Method for treating a motor neuron disease” (Eisai R&D Management Co., Ltd., priority 2006, dated 2009).
Some of these results come from one statement about several compounds together.

Molecular target: T1, 5-HT1A receptor (Sus scrofa, UniProt A0A4X1UTF5)
T1 construct: to a swine hippocampus membrane fraction; from tissue; host or cells: swine hippocampus
T1 sequence (A0A4X1UTF5 1-422): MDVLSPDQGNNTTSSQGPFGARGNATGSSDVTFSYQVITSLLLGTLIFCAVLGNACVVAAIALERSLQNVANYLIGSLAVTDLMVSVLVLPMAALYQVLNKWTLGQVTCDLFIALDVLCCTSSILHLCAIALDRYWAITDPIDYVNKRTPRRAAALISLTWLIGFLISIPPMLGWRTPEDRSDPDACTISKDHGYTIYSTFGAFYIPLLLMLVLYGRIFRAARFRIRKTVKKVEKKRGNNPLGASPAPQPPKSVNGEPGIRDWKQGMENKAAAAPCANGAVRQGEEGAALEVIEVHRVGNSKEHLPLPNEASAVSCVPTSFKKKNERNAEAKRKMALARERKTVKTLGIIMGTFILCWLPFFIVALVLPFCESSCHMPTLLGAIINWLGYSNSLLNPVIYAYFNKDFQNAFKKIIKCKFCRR
Details: conclusion from the affinity test, see WO 2005/108389; cited from earlier work

| Compound | Serotonin 1A receptor antagonist activity |
| --- | --- |
| COc1ccc2nc(C)oc2c1CCN1CCC(n2ccc3ccc(C(N)=O)cc32)CC1 [Compound 12, 1-{1-[2-(6-methoxy-2-methylbenzoxazol-7-yl)ethyl]piperidin-4-yl}-1H-indole-6-carboxamide] | excellent serotonin 1A receptor antagonist activity |
| COc1cc2onc(C)c2cc1CCN1CCC(n2ccc3ccc(C(N)=O)cc32)CC1 [Compound 13, 1-{1-[2-(6-methoxy-3-methylbenzo[d]isoxazol-5-yl)ethyl]piperidin-4-yl}-1H-indole-6-carboxamide] | excellent serotonin 1A receptor antagonist activity |
| CNC(=O)c1ccc2ccn(C3CCN(CCc4c(OC)ccc5c4OC(C)(C)CC5=O)CC3)c2c1 [Compound 9, 1-{1-[2-(7-methoxy-2,2-dimethyl-4-oxochroman-8-yl)ethyl]piperidin-4-yl}-N-methyl-1H-indole-6-carboxamide] | excellent serotonin 1A receptor antagonist activity |
| COc1cc2c(cc1CCN1CCC(n3ccc4ccc(C(N)=O)cc43)CC1)OCCO2 [Compound 15, 1-{1-[2-(7-methoxy-2,3-dihydrobenzo[1,4]dioxin-6-yl)ethyl]piperidin-4-yl}-1H-indole-6-carboxamide] | excellent serotonin 1A receptor antagonist activity |
| COc1ccc2c(c1CCN1CCC(n3ccc4ccc(C(N)=O)cc43)CC1)OC(C)(C)CC2=O [Compound 10, 1-{1-[2-(7-methoxy-2,2-dimethyl-4-oxochroman-8-yl)ethyl]piperidin-4-yl}-1H-indole-6-carboxamide] | excellent serotonin 1A receptor antagonist activity |
